Data taken from the supplement of paper PMC6411743.
± gives the standard deviation of the averaged measurements. Only a part is listed here, and it is no random draw.

Tests used:
Assay in all cases: NP40-soluble protein abundance relative to vehicle (solubility fold change) (ratio); higher = more soluble protein in presence of ATP
ATXN10 = molecular target: T1, ATXN10 (UniProt Q9UBB4)
T1 sequence (whole entry): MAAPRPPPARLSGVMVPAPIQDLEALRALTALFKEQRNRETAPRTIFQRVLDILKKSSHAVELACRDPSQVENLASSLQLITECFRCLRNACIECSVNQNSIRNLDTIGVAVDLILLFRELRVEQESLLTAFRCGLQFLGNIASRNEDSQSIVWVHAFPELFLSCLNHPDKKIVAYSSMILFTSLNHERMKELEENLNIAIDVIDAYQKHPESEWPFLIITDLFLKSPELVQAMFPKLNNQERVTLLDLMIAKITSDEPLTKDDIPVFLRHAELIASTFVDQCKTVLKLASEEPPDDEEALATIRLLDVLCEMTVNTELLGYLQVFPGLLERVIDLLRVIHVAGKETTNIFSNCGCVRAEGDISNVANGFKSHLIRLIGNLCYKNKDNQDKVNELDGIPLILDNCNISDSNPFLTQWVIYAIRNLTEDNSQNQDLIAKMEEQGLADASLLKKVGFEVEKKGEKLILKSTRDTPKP
Procedure, shortened: (§1)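 Jurkat crude lysate (Dounce-homogenised) was treated with eight concentrations from 0.1 to 10 mM for 10 min at room temperature, then 3 min at 37 °C. It was solubilised with 0.8% NP40 and benzonase (60 min, 4 °C) and ultracentrifuged, and the supernatant was TMT-labelled for LC-MS/MS. Intensities were vsn-normalised, and the value is the fold change against the NP40-processed vehicle per replicate, from three independent experiments.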

FAF1 = molecular target: T2, FAF1 (UniProt Q9UNN5)
T2 sequence (whole entry): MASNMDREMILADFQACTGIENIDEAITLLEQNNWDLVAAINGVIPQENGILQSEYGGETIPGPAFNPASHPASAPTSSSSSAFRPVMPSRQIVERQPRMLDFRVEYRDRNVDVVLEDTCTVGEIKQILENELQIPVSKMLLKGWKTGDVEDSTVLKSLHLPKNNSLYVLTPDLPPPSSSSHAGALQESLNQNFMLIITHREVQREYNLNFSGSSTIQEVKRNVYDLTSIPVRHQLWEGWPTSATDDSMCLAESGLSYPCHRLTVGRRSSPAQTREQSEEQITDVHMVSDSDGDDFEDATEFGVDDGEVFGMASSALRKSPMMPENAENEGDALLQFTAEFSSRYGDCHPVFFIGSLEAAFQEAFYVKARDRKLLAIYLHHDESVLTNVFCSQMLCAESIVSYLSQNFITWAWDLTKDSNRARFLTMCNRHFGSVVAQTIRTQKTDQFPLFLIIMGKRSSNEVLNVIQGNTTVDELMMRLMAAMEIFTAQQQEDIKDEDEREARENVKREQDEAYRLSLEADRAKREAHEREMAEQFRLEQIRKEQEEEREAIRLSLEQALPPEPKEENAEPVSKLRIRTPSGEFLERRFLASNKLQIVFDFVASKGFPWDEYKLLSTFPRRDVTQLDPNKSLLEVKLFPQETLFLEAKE
Procedure, shortened: as §1

GGA2 = molecular target: T3, GGA2 (UniProt Q9UJY4)
T3 sequence (whole entry): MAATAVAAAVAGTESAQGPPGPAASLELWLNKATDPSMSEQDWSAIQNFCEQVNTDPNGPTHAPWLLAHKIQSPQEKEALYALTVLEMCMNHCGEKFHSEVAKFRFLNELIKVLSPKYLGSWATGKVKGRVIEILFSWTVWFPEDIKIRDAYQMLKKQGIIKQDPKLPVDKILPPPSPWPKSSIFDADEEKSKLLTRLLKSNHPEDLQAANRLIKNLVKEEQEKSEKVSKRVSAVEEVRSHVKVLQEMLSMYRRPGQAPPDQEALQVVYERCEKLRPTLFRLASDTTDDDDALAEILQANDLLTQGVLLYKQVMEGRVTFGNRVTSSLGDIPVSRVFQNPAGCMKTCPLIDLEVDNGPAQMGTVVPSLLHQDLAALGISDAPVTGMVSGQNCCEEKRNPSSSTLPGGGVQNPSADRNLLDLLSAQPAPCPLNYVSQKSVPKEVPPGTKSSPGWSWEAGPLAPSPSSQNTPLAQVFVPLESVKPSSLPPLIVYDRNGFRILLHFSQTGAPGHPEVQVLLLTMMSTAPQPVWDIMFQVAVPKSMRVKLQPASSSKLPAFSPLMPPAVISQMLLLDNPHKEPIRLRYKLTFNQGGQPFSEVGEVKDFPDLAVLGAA
Procedure, shortened: as §1

GGT7 = molecular target: T4, GGT7 (UniProt Q9UJ14)
T4 sequence (whole entry): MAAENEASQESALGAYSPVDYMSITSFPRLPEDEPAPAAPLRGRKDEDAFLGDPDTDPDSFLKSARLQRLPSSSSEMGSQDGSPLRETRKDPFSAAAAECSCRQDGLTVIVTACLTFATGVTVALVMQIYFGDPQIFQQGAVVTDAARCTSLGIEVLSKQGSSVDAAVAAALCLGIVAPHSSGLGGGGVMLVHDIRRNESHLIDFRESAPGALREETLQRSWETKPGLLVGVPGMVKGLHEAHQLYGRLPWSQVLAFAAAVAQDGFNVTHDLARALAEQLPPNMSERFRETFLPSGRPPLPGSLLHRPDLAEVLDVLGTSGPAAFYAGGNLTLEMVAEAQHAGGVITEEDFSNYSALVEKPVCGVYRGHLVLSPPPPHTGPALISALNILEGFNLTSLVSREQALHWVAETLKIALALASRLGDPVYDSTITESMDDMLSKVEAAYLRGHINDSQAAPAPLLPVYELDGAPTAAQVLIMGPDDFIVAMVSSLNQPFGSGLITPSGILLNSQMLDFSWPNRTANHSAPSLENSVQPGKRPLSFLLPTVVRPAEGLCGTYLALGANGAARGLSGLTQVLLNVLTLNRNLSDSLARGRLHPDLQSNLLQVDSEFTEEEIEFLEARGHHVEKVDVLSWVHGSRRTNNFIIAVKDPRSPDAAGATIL
Procedure, shortened: as §1

PCYOX1 = molecular target: T5, PCYOX1 (UniProt Q9UHG3)
T5 sequence (whole entry): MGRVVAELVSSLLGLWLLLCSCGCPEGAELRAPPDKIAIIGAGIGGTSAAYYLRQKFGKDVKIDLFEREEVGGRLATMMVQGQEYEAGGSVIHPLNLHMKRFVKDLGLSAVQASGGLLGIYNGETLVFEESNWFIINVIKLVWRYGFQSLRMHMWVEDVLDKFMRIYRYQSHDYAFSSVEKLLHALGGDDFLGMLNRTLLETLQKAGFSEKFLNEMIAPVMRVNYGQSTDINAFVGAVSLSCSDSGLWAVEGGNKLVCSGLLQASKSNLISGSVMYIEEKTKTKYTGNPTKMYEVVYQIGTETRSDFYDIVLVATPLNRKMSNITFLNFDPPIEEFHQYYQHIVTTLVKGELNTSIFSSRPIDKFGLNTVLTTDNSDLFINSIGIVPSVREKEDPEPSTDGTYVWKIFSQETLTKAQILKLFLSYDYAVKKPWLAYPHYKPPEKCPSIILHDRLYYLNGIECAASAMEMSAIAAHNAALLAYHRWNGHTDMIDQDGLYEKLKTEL
Procedure, shortened: as §1

PLCL2 = molecular target: T6, PLCL2 (UniProt Q9UPR0)
T6 sequence (whole entry): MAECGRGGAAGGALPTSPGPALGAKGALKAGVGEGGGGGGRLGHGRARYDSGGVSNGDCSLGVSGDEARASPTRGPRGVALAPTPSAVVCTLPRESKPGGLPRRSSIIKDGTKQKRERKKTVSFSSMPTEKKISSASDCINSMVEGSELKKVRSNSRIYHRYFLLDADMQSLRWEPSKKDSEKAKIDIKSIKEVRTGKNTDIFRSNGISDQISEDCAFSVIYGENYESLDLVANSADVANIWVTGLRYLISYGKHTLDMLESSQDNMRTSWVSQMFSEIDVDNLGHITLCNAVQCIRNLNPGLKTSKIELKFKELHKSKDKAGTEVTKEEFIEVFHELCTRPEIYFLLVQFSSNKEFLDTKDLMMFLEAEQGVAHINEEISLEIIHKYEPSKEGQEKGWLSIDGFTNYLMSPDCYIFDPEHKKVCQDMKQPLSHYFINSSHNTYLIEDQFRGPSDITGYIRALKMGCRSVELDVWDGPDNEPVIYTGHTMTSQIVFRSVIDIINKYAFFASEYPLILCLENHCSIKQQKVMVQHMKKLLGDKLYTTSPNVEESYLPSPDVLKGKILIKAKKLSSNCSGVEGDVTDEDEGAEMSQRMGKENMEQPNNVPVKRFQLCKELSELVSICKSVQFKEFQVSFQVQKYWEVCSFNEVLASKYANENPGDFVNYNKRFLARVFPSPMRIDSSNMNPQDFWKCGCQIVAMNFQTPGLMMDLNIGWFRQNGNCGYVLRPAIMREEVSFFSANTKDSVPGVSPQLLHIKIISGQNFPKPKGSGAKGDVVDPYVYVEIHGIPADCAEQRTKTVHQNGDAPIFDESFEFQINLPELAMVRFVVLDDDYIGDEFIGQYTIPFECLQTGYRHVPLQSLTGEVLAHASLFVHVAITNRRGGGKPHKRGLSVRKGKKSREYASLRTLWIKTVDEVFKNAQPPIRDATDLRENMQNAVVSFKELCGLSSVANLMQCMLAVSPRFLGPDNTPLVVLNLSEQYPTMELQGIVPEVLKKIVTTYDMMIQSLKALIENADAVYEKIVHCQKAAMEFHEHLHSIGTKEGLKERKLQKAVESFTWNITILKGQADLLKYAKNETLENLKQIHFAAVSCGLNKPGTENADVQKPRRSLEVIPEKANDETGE
Procedure, shortened: as §1

POLG2 = molecular target: T7, POLG2 (UniProt Q9UHN1)
T7 sequence (whole entry): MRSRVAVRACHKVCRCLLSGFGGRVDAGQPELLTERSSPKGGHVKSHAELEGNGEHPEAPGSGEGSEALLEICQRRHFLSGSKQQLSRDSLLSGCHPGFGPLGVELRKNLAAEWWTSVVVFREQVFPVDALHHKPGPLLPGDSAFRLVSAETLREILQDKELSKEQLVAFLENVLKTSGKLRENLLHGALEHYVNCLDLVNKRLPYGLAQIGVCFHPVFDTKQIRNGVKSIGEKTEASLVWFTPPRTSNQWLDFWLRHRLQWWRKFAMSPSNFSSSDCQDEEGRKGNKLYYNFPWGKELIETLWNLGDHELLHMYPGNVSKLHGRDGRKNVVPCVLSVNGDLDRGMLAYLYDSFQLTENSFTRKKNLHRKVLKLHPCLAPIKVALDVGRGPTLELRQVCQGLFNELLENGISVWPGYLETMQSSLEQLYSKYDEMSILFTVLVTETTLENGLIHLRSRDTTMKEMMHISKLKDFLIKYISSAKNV
Procedure, shortened: as §1

## Nc1ncnc2c1ncn2[C@@H]1O[C@H](COP(=O)(O)OP(=O)(O)OP(=O)(O)O)[C@@H](O)[C@H]1O [adenosine triphosphate]
ATXN10; concentration: 1mM
  NP40-soluble protein abundance: 0.9501 ± 0.0036
ATXN10; concentration: 2mM
  NP40-soluble protein abundance: 0.959 ± 0.031
ATXN10; concentration: 4mM
  NP40-soluble protein abundance: 0.927 ± 0.015
ATXN10; concentration: 6mM
  NP40-soluble protein abundance: 0.933 ± 0.045
ATXN10; concentration: 8mM
  NP40-soluble protein abundance: 0.915 ± 0.025
ATXN10; concentration: 10mM
  NP40-soluble protein abundance: 0.913 ± 0.032
FAF1; concentration: 1mM
  NP40-soluble protein abundance: 0.988 ± 0.038
FAF1; concentration: 2mM
  NP40-soluble protein abundance: 0.993 ± 0.037
FAF1; concentration: 4mM
  NP40-soluble protein abundance: 0.972 ± 0.036
FAF1; concentration: 6mM
  NP40-soluble protein abundance: 0.966 ± 0.047
FAF1; concentration: 8mM
  NP40-soluble protein abundance: 0.958 ± 0.039
FAF1; concentration: 10mM
  NP40-soluble protein abundance: 0.975 ± 0.049
GGA2; concentration: 1mM
  NP40-soluble protein abundance: 0.952 ± 0.038
GGA2; concentration: 2mM
  NP40-soluble protein abundance: 0.968 ± 0.057
GGA2; concentration: 4mM
  NP40-soluble protein abundance: 0.991 ± 0.046
GGA2; concentration: 6mM
  NP40-soluble protein abundance: 0.975 ± 0.016
GGA2; concentration: 8mM
  NP40-soluble protein abundance: 0.932 ± 0.02
GGA2; concentration: 10mM
  NP40-soluble protein abundance: 0.961 ± 0.025
GGT7; concentration: 1mM
  NP40-soluble protein abundance: 0.977 ± 0.053
GGT7; concentration: 2mM
  NP40-soluble protein abundance: 0.973 ± 0.09
GGT7; concentration: 4mM
  NP40-soluble protein abundance: 1.01 ± 0.17
GGT7; concentration: 6mM
  NP40-soluble protein abundance: 0.928 ± 0.057
GGT7; concentration: 8mM
  NP40-soluble protein abundance: 0.871 ± 0.069
GGT7; concentration: 10mM
  NP40-soluble protein abundance: 0.938 ± 0.023
PCYOX1; concentration: 1mM
  NP40-soluble protein abundance: 1 ± 0.12
PCYOX1; concentration: 2mM
  NP40-soluble protein abundance: 1.01 ± 0.1
PCYOX1; concentration: 4mM
  NP40-soluble protein abundance: 0.99 ± 0.077
PCYOX1; concentration: 6mM
  NP40-soluble protein abundance: 0.916 ± 0.12
PCYOX1; concentration: 8mM
  NP40-soluble protein abundance: 0.98 ± 0.034
PCYOX1; concentration: 10mM
  NP40-soluble protein abundance: 0.971 ± 0.059
PLCL2; concentration: 1mM
  NP40-soluble protein abundance: 0.95 ± 0.088
PLCL2; concentration: 2mM
  NP40-soluble protein abundance: 0.964 ± 0.037
PLCL2; concentration: 4mM
  NP40-soluble protein abundance: 0.972 ± 0.035
PLCL2; concentration: 6mM
  NP40-soluble protein abundance: 0.946 ± 0.052
PLCL2; concentration: 8mM
  NP40-soluble protein abundance: 0.963 ± 0.058
PLCL2; concentration: 10mM
  NP40-soluble protein abundance: 0.9853 ± 0.0089
POLG2; concentration: 1mM
  NP40-soluble protein abundance: 1.05 ± 0.1
POLG2; concentration: 2mM
  NP40-soluble protein abundance: 0.98 ± 0.025
POLG2; concentration: 4mM
  NP40-soluble protein abundance: 0.969 ± 0.031
POLG2; concentration: 6mM
  NP40-soluble protein abundance: 0.931 ± 0.067
POLG2; concentration: 8mM
  NP40-soluble protein abundance: 0.9842 ± 0.006
POLG2; concentration: 10mM
  NP40-soluble protein abundance: 0.993 ± 0.062
